These results are taken from paper PMC8373263.

Amino acid sequences for entries named in this document (tags omitted).
UniProt P70288: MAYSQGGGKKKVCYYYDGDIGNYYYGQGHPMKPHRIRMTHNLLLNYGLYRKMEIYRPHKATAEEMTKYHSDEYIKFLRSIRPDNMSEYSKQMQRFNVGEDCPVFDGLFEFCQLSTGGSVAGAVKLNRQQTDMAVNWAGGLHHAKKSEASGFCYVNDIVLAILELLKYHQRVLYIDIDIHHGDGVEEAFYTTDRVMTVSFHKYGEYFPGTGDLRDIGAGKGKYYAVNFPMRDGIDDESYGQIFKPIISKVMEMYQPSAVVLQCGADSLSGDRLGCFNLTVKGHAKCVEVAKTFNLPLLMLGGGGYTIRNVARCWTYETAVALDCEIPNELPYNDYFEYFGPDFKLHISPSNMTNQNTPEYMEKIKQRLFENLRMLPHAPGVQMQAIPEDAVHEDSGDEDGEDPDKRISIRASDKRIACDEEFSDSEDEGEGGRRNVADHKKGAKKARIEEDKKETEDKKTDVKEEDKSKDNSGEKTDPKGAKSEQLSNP

Results are given in words; binding and its absence hold for the method and conditions named. Where a sequence is shown, tags or fusion partners need not be part of it.

The experiment concerns the target T1, GST-APPL1 (full-length APPL1) (mouse) (UniProt Q8K3H0).
T1 sequence: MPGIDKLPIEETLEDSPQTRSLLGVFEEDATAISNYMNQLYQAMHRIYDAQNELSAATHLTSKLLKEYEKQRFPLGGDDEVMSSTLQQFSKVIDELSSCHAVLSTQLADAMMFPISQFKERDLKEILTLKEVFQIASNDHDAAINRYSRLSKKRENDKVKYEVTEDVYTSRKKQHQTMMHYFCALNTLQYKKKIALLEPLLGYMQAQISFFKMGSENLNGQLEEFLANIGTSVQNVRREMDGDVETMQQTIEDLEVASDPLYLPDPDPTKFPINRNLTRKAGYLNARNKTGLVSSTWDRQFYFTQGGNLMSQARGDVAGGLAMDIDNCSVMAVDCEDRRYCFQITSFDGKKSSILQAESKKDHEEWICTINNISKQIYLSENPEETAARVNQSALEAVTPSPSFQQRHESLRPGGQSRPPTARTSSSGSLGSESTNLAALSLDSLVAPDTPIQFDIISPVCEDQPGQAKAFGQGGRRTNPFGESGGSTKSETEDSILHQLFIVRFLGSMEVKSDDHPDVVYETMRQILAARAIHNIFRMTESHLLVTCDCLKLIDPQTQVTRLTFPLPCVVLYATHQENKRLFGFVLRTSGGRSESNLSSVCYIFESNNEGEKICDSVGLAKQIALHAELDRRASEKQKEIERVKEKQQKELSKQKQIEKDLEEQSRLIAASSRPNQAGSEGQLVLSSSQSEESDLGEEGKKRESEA
Put plainly: pull-down; GST-APPL1 and HDAC2 (Supplementary Figure S4); by the methods' binding assay: 10 μg purified GST-tagged protein with about the same amount of His-tagged recombinant protein in lysis buffer, GST beads, His antibody; both purified.

In the case of “HDAC2 (tested against GST-APPL1, Supplementary Figure S4) (from UniProt P70288 1-488) (enzyme)”, the binding entry was “no binding”.
